Values from PubChem BioAssay AID493246 (Drosophila RNAi Screening Center, 2011).
In all, the deposit lists about 21,000 reagents; below is an unselected part of those that have a named target and a result. In the full data, 429 (2%) were called active. 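Values are raw and not normalised between plates; calls rest on per-plate z-scores that were not deposited.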 Names joined by + are all predicted targets of the reagent. Not stated in the record: the amount of reagent, the time to read-out.

Screen: 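Identify essential fly genes by loss of cell viability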 (primary screen)
Cells: Drosophila Kc and S2R+ cells
Knock-down reagent: long dsRNA against Drosophila genes
Detection: 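Raw, unnormalised count of remaining cells in each well; per-plate z-scores of cell number underlie the calls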
Scale: Kc cell number and S2R+ cell number: higher = more cells remaining
Active means: 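Active when the per-plate z-score of cell number is 3 or more in the direction of fewer cells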

The opening 7 entries, to show the layout:
target | amplicon | Kc cell number, rep 1 | Kc cell number, rep 2 | S2R+ cell number, rep 1 | S2R+ cell number, rep 2 | activity call
Baldspot (GeneID 39860) | DRSC09671 | 1.35e6 | 1.43e6 | 1.18e6 | 1.27e6 | inactive
CG14556 (GeneID 43176) | DRSC14899 | 1.37e6 | 1.43e6 | 1.02e6 | 1.15e6 | inactive
CG2247 (GeneID 32111) | DRSC19844 | 5.26e5 | – | 7.85e5 | – | inactive
Mpv17 (GeneID 43831) | DRSC17198 | 1.51e6 | 1.55e6 | 1.10e6 | 1.24e6 | inactive
MED22 (GeneID 31038) | DRSC18175 | 1.62e6 | 1.68e6 | 1.01e6 | 1.09e6 | inactive
MED1 (GeneID 40403) | DRSC11808 | 1.76e6 | 1.84e6 | 1.16e6 | 1.24e6 | inactive
CkIIalpha (GeneID 48448) | DRSC11946 | 1.35e6 | 1.42e6 | 1.01e6 | 1.12e6 | inactive

The list itself, from the start:
target | amplicon | Kc cell number, rep 1 | Kc cell number, rep 2 | S2R+ cell number, rep 1 | S2R+ cell number, rep 2 | activity call
Baldspot (GeneID 39860) | DRSC09671 | 1.35e6 | 1.43e6 | 1.18e6 | 1.27e6 | inactive
CG14556 (GeneID 43176) | DRSC14899 | 1.37e6 | 1.43e6 | 1.02e6 | 1.15e6 | inactive
CG2247 (GeneID 32111) | DRSC19844 | 5.26e5 | – | 7.85e5 | – | inactive
Mpv17 (GeneID 43831) | DRSC17198 | 1.51e6 | 1.55e6 | 1.10e6 | 1.24e6 | inactive
MED22 (GeneID 31038) | DRSC18175 | 1.62e6 | 1.68e6 | 1.01e6 | 1.09e6 | inactive
MED1 (GeneID 40403) | DRSC11808 | 1.76e6 | 1.84e6 | 1.16e6 | 1.24e6 | inactive
CkIIalpha (GeneID 48448) | DRSC11946 | 1.35e6 | 1.42e6 | 1.01e6 | 1.12e6 | inactive
RhoU (GeneID 31945) | DRSC17635 | 1.25e6 | 1.63e6 | 1.08e6 | 1.14e6 | inactive
RhoU (GeneID 31945) | DRSC17803 | 1.62e6 | 1.52e6 | 1.13e6 | 1.17e6 | inactive
RhoU (GeneID 31945) | DRSC17804 | 1.41e6 | 1.50e6 | 1.09e6 | 1.21e6 | inactive
Obp58d (GeneID 37609) | DRSC04162 | 1.52e6 | 1.60e6 | 1.39e6 | 1.39e6 | inactive
exu (GeneID 37345) | DRSC07615 | 1.25e6 | 1.29e6 | 1.14e6 | 1.21e6 | inactive
CG12502 (GeneID 38102) | DRSC08281 | 1.62e6 | 1.26e6 | 9.56e5 | 1.20e6 | inactive
CG42534 (GeneID 43298) | DRSC14722 | 1.54e6 | 1.58e6 | 9.67e5 | 1.05e6 | inactive
CG42534 (GeneID 43298) | DRSC14759 | 1.62e6 | 1.68e6 | 8.46e5 | 9.41e5 | inactive
CG42534 (GeneID 43298) | DRSC16072 | 1.58e6 | 1.60e6 | 1.05e6 | 1.21e6 | inactive
Lrrk (GeneID 42447) | DRSC15816 | 1.37e6 | 1.27e6 | 9.63e5 | 1.15e6 | inactive
Dic1 (GeneID 41640) | DRSC14125 | 1.56e6 | 1.70e6 | 1.26e6 | 1.36e6 | inactive
EMC10 (GeneID 40396) | DRSC11850 | 1.63e6 | 1.77e6 | 1.37e6 | 1.46e6 | inactive
CycD (GeneID 32551) | DRSC20233 | 1.42e6 | 1.45e6 | 6.29e5 | 7.18e5 | active
Dtwd2 + Obp84a | DRSC12603 | 1.67e6 | 1.91e6 | 1.25e6 | 1.41e6 | inactive
CG15741 (GeneID 32137) | DRSC19707 | 1.47e6 | 1.41e6 | 9.50e5 | 1.05e6 | inactive
mrva (GeneID 38808) | DRSC11009 | 1.35e6 | 1.41e6 | 1.04e6 | 1.16e6 | inactive
mRpS16 (GeneID 36570) | DRSC07152 | 1.64e6 | 1.63e6 | 1.21e6 | 1.37e6 | inactive
CG4563 (GeneID 37901) | DRSC04474 | 1.49e6 | 1.54e6 | 1.29e6 | 1.36e6 | inactive
CG9485 (GeneID 37435) | DRSC04557 | 1.53e6 | 1.66e6 | 1.13e6 | 1.28e6 | inactive
CCT7 (GeneID 41054) | DRSC16410 | 1.42e6 | 1.53e6 | 1.25e6 | 1.30e6 | inactive
CG15201 (GeneID 32053) | DRSC19648 | 1.55e6 | 1.60e6 | 1.09e6 | 1.27e6 | inactive
Snm1 (GeneID 40669) | DRSC12130 | 1.49e6 | 1.60e6 | 1.19e6 | 1.26e6 | inactive
CG11263 (GeneID 39472) | DRSC09832 | 1.36e6 | 1.40e6 | 1.34e6 | 1.45e6 | inactive
Ogg1 (GeneID 31806) | DRSC17738 | 5.97e5 | – | 8.95e5 | – | inactive
CG6409 (GeneID 39220) | DRSC10630 | 1.34e6 | 1.41e6 | 1.06e6 | 1.20e6 | inactive
CenB1A (GeneID 42735) | DRSC16923 | 1.71e6 | 1.62e6 | 1.07e6 | 1.20e6 | inactive
Non2 (GeneID 38341) | DRSC08272 | 1.35e6 | 1.43e6 | 1.01e6 | 9.37e5 | inactive
CG8517 (GeneID 37268) | DRSC07205 | 1.62e6 | 1.86e6 | 1.38e6 | 1.59e6 | inactive
eIF3j (GeneID 36037) | DRSC06107 | 1.57e6 | 1.64e6 | 1.14e6 | 1.06e6 | inactive
Rab26 (GeneID 40359) | DRSC11837 | 1.21e6 | 1.46e6 | 1.10e6 | 1.23e6 | inactive
Rab26 (GeneID 40359) | DRSC11838 | 1.55e6 | 1.67e6 | 1.31e6 | 1.42e6 | inactive
Rab26 (GeneID 40359) | DRSC11839 | 1.66e6 | 1.77e6 | 1.35e6 | 1.56e6 | inactive
CG12659 (GeneID 50403) | DRSC17862 | 1.61e6 | 1.60e6 | 1.15e6 | 1.22e6 | inactive
Ir93a (GeneID 42471) | DRSC15212 | 1.89e6 | 1.84e6 | 1.39e6 | 1.41e6 | inactive
Ir93a (GeneID 42471) | DRSC15213 | 1.24e6 | 1.20e6 | 1.06e6 | 1.15e6 | inactive
ttm2 (GeneID 38049) | DRSC08268 | 1.30e6 | 1.31e6 | 1.07e6 | 1.24e6 | inactive
PpD3 (GeneID 49779) | DRSC16796 | 1.49e6 | 1.49e6 | 1.29e6 | 1.30e6 | inactive
Acat1 (GeneID 31695) | DRSC17766 | 6.33e5 | – | 9.39e5 | – | inactive
Vha36-3 (GeneID 31235) | DRSC18615 | 1.41e6 | 1.46e6 | 9.86e5 | 1.09e6 | inactive
CG9109 (GeneID 33844) | DRSC03139 | 1.21e6 | 1.43e6 | 4.63e5 | 5.17e5 | inactive
msl-2 (GeneID 33565) | DRSC00829 | 1.31e6 | 1.37e6 | 9.24e5 | 8.99e5 | inactive
CG7365 (GeneID 40200) | DRSC10824 | 1.72e6 | 1.75e6 | 1.38e6 | 1.37e6 | inactive
CG15025 (GeneID 42328) | DRSC15031 | 1.38e6 | 1.32e6 | 1.02e6 | 1.13e6 | inactive
C1GalTA (GeneID 34215) | DRSC03246 | 1.33e6 | 1.44e6 | 9.69e5 | 1.03e6 | inactive
CheB38c (GeneID 35346) | DRSC02389 | 1.65e6 | 1.81e6 | 1.40e6 | 3.08e5 | inactive
m (GeneID 44835) | DRSC20181 | 1.66e6 | 1.61e6 | 9.59e5 | 1.02e6 | inactive
CG31102 (GeneID 326118) | DRSC14260 | 1.42e6 | 1.44e6 | 1.06e6 | 1.18e6 | inactive
wry (GeneID 33361) | DRSC00352 | 1.53e6 | 1.61e6 | 9.67e5 | 1.10e6 | inactive
wry (GeneID 33361) | DRSC00456 | 1.55e6 | 1.78e6 | 1.16e6 | 1.11e6 | inactive
Camta (GeneID 35974) | DRSC06440 | 1.58e6 | 1.71e6 | 1.22e6 | 1.36e6 | inactive
Camta (GeneID 35974) | DRSC06441 | 1.52e6 | 1.45e6 | 7.12e5 | 7.91e5 | inactive
Camta (GeneID 35974) | DRSC07272 | 1.35e6 | 1.37e6 | 1.14e6 | 1.18e6 | inactive
